The list shows a part of the results.
Target: OsWRKY34 (Oryza sativa, UniProt Q0JBA9 1-250)
Test: protein-binding microarray (RPBM); PBS, 2% BSA, 51.3 ng/ul salmon testes DNA, 50 uM zinc acetate, 200 nM TF, 25 C, 1 h; high values mean tight binding
Conditions: protein: recombinant; tags: N-terminal polyhistidine and DsRed monomer fusion (pET32a); label: CyDye5-dUTP incorporated in the synthesized complementary strand; 3' TTTTT single-stranded linker to array surface; dsDNA, one strand shown
Method in brief: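 The binding signal for each feature is its fluorescence intensity in arbitrary units. An Axon 4000B scanner was used to read a custom Agilent array that had been made double-stranded with Cy5-dUTP primer extension, blocked with 2% BSA, incubated at 25 °C for 1 h with 200 nM protein in PBS, 2% BSA, salmon testes DNA and 50 µM zinc acetate, and washed. The protein was an N-terminal polyhistidine–DsRed transcription factor fusion from E. coli BL21-CodonPlus, purified on Ni–NTA.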

The chains behind the UniProt entries cited, without tags or fusion partners.
UniProt Q0JBA9, entry or part of it: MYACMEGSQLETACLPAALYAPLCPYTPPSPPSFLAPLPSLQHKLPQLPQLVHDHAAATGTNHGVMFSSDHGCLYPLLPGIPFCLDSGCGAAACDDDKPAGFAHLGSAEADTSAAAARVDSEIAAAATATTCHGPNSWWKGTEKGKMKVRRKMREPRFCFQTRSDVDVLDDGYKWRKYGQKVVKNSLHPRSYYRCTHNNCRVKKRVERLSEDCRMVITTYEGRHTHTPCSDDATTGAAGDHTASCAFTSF

Row | Sequence | binding signal
1 | CAGCTATCATTAGCTGTCTAGTCACGTCCTATTTTTTTATCGGAGTCACCTAGTGCAG | 8290 fluorescence intensity (a.u.)
2 | AGGTCATCGCAGGGCTCCTCTCCATCGCAGCCGCTCCAGCCGGAGTCACCTAGTGCAG | 8910 fluorescence intensity (a.u.)
3 | TGCTAAAATTTAACTTGGAGAGTGGGGTTGGGAGGCTATTCGGAGTCACCTAGTGCAG | 9090 fluorescence intensity (a.u.)
4 | TGTGGCATCAAGGGGTAAAAAGGGCACGGGGAGGGTTGAGCGGAGTCACCTAGTGCAG | 9710 fluorescence intensity (a.u.)
5 | GACCTATCCCTAGCAGATCTCCCTACTCCCATCCCCGCCGCGGAGTCACCTAGTGCAG | 9420 fluorescence intensity (a.u.)
6 | TCTTTCTTTCTCTCTCCATACAGGTGGTCAATGCATTCAACGGAGTCACCTAGTGCAG | 8570 fluorescence intensity (a.u.)
7 | TATTTTTTTTTCGTTTTTCATCGTAGTTTATTTTACAACACGGAGTCACCTAGTGCAG | 12400 fluorescence intensity (a.u.)
8 | AACTTTATTTTTTTGTTTTTATACAACATTTATCTCTTCGCGGAGTCACCTAGTGCAG | 9520 fluorescence intensity (a.u.)
9 | CTTTTCTTTTTTTTTCATTATTCTAACTTATATCTCGTTTCGGAGTCACCTAGTGCAG | 9340 fluorescence intensity (a.u.)
10 | GCCTGGACGACCTGGTTTCACGCGTTTGTGAGCCACATACCGGAGTCACCTAGTGCAG | 9060 fluorescence intensity (a.u.)
11 | CCGCCGCCACCGCAAACTCTCTTTCTTCTCTCGCCTGGACCGGAGTCACCTAGTGCAG | 9650 fluorescence intensity (a.u.)
12 | GCCGAAAGCCCACCACACACCGTTCCTCCTCGAGACCAGCCGGAGTCACCTAGTGCAG | 10100 fluorescence intensity (a.u.)
13 | TTTTTTAACTGACATGTGGGGCTATGATTTTTATTATTTTCGGAGTCACCTAGTGCAG | 9300 fluorescence intensity (a.u.)
14 | GATCCATCTAGCTAATTGTTGAATCCATCTAAGCTTAATGCGGAGTCACCTAGTGCAG | 8310 fluorescence intensity (a.u.)
15 | TTACTTGCTTCTATGTATGGCAACTTTTCTACATTGCAATCGGAGTCACCTAGTGCAG | 9890 fluorescence intensity (a.u.)
16 | CCGCCGCCGCGTCGGGTGTGTGGTAGGGTTTGGGGCGATGCGGAGTCACCTAGTGCAG | 9950 fluorescence intensity (a.u.)
17 | CTATAAATTAATTTTTATTCCTCGATACGTTTTGCCTTATCGGAGTCACCTAGTGCAG | 8220 fluorescence intensity (a.u.)
18 | TTTCATTTCACCAACTAAACAGGCCCATAATGCCGATCATCGGAGTCACCTAGTGCAG | 8240 fluorescence intensity (a.u.)
19 | TGCTACTTAGGTTACCGCAATCACTAGACTTTGCCTTTGACGGAGTCACCTAGTGCAG | 9580 fluorescence intensity (a.u.)
20 | CCCGTAATCCATCCGGGAGCTCCGTCCCTCGCTTCGGCATCGGAGTCACCTAGTGCAG | 8220 fluorescence intensity (a.u.)
21 | CATCACTAATCACTATATCATTGGGCTAGTTTAGGTTGATCGGAGTCACCTAGTGCAG | 8600 fluorescence intensity (a.u.)

Quoted from the listing.
Entry for TATTTTTTTTTCGTTTTTCATCGTAGTTTATTTTACAACACGGAGTCACCTAGTGCAG under binding signal: 12400 fluorescence intensity (a.u.)
Entry for TGCTAAAATTTAACTTGGAGAGTGGGGTTGGGAGGCTATTCGGAGTCACCTAGTGCAG under binding signal: 9090 fluorescence intensity (a.u.)

(listing goes on)

Row | Sequence | binding signal
22 | GTCTGTGTCTGTTACTCTGTCTATTTATCAACTTGAGGGCCGGAGTCACCTAGTGCAG | 8500 fluorescence intensity (a.u.)
23 | GAATTGATTCCCTTGTATCCGGGATTTGATTTGATTTTGGCGGAGTCACCTAGTGCAG | 8430 fluorescence intensity (a.u.)
24 | TTCCCTCGTACCATTTTCGCTGTTGGTCTTTATTGCAGCACGGAGTCACCTAGTGCAG | 10100 fluorescence intensity (a.u.)
25 | TTATAAGTTTTTTTACACACACCTGCTATGTAACTTATATCGGAGTCACCTAGTGCAG | 8450 fluorescence intensity (a.u.)
26 | GCCTGCACCTGTACGTTAGCGGTTAGCCCTGGTCAAGAGTCGGAGTCACCTAGTGCAG | 8220 fluorescence intensity (a.u.)
27 | GTCGTGTTCTTCTTCTTCTTCCATTCAGTCTTGTGCTTGACGGAGTCACCTAGTGCAG | 12200 fluorescence intensity (a.u.)
28 | AGGGCCCAGGTGACGGCCGCCCGCACGCACACGACACGACCGGAGTCACCTAGTGCAG | 8260 fluorescence intensity (a.u.)
29 | GCTTTTTATACGAGTTCCAGCTCCGCCGCGAGTCCGCGACCGGAGTCACCTAGTGCAG | 9870 fluorescence intensity (a.u.)
30 | TCCTCTCGATCTCCATTCGTTTTTGAGTTCCTCGTTTGCTCGGAGTCACCTAGTGCAG | 12000 fluorescence intensity (a.u.)
31 | TGCTCCTATATATACTCATCTTAACCCCTGCCAAAATCTCCGGAGTCACCTAGTGCAG | 8510 fluorescence intensity (a.u.)
32 | TCTGCCATCGTTACCAAGTTGTCACTTTCTTTTGTCGATTCGGAGTCACCTAGTGCAG | 9520 fluorescence intensity (a.u.)
33 | ATTTTTTTTATGGTGCATATGTTACATAGCTTCTCAACATCGGAGTCACCTAGTGCAG | 8870 fluorescence intensity (a.u.)
34 | GCCGATTGTCCCTCACGCCAAACCATCACGTGTGCGCTTCCGGAGTCACCTAGTGCAG | 10600 fluorescence intensity (a.u.)
35 | CGGTGTTCCGCCGTTGACTTGACTCCGGTAGTCGGATGATCGGAGTCACCTAGTGCAG | 8890 fluorescence intensity (a.u.)
36 | ACCTCTTCTTCTCTTTGTCCCCTTCTCCATTTCCAAATTCCGGAGTCACCTAGTGCAG | 9460 fluorescence intensity (a.u.)
37 | TCCCCAGTTATTAATTCCGCATTCCAGTTGACCAGTTGTACGGAGTCACCTAGTGCAG | 9020 fluorescence intensity (a.u.)
38 | GTACCCAATCGCGTCCACGTACTATTCCACTCTCTAACCTCGGAGTCACCTAGTGCAG | 10300 fluorescence intensity (a.u.)
39 | CCCTGGTATCCGCGCCCAATGTTTGACCGTCCGTTTTATTCGGAGTCACCTAGTGCAG | 12600 fluorescence intensity (a.u.)
40 | ACTTTCAACCTCCTTGAAATGTTACTCATATGTTTGGGCGCGGAGTCACCTAGTGCAG | 8920 fluorescence intensity (a.u.)
41 | CGTTCTCCGTTTTGGTTTTTTATCGTAGTTCCGTTCTGGGCGGAGTCACCTAGTGCAG | 9870 fluorescence intensity (a.u.)
42 | CCTTATTTTTAATTCTGAATTTTAGCTATTTTATATTGTACGGAGTCACCTAGTGCAG | 8080 fluorescence intensity (a.u.)
